Experimental data from patent publication US9050249B2, “Oral pharmaceutical compositions in timed-release particle form and fast-disintegrating tablets containing this composition” (ASTELLAS PHARMA INC., priority 2004, dated 2015).
Structures can show the parent of a compound that is named as a salt.

Assay: Sensory tests (bitter taste and astringent taste)
Format: in vivo, healthy adults
Design: key: −: Did not notice an unpleasant taste; ±: noticed a slight change in taste, but it could be tolerated; +: noticed an unpleasant taste; ++: noticed a strong unpleasant taste
Conditions: 50 mg imipramine hydrochloride
[1] = Tester No.1, 1 minute after administration
[2] = Tester No.1, 3 minutes after administration
[3] = Tester No.1, 5 minutes after administration
[4] = Tester No.1, 7 minutes after administration
[5] = Tester No.2, 1 minute after administration
[6] = Tester No.2, 3 minutes after administration
[7] = Tester No.2, 5 minutes after administration
[8] = Tester No.2, 7 minutes after administration
[9] = Tester No.3, 1 minute after administration
[10] = Tester No.3, 3 minutes after administration
[11] = Tester No.3, 5 minutes after administration
[12] = Tester No.3, 7 minutes after administration

For CN(C)CCCN1c2ccccc2CCc2ccccc21 [imipramine hydrochloride], the Astringent taste [1] was “−”, the Bitter taste [1] was “±” and the Astringent taste [2] was “+”. For the same molecule, the Bitter taste [2] was “+”, the Astringent taste [3] was “+” and the Bitter taste [3] was “−”. For the same molecule, the Astringent taste [4] was “++”, the Bitter taste [4] was “−” and the Astringent taste [5] was “±”. The Bitter taste [5] was “±”, the Astringent taste [6] was “+” and the Bitter taste [6] was “+”. The Astringent taste [7] was “+”, the Bitter taste [7] was “−” and the Astringent taste [8] was “+”. For the same molecule, the Bitter taste [8] was “−”, the Astringent taste [9] was “+” and the Bitter taste [9] was “+”. The Astringent taste [10] was “+”, the Bitter taste [10] was “±” and the Astringent taste [11] was “+”. The Bitter taste [11] was “−”, the Astringent taste [12] was “+” and the Bitter taste [12] was “−”.
